Test results: PMC13650161

Protein sequences, listed by entry. Tags and fused reporters are not part of them.
UniProt Q5LJZ2: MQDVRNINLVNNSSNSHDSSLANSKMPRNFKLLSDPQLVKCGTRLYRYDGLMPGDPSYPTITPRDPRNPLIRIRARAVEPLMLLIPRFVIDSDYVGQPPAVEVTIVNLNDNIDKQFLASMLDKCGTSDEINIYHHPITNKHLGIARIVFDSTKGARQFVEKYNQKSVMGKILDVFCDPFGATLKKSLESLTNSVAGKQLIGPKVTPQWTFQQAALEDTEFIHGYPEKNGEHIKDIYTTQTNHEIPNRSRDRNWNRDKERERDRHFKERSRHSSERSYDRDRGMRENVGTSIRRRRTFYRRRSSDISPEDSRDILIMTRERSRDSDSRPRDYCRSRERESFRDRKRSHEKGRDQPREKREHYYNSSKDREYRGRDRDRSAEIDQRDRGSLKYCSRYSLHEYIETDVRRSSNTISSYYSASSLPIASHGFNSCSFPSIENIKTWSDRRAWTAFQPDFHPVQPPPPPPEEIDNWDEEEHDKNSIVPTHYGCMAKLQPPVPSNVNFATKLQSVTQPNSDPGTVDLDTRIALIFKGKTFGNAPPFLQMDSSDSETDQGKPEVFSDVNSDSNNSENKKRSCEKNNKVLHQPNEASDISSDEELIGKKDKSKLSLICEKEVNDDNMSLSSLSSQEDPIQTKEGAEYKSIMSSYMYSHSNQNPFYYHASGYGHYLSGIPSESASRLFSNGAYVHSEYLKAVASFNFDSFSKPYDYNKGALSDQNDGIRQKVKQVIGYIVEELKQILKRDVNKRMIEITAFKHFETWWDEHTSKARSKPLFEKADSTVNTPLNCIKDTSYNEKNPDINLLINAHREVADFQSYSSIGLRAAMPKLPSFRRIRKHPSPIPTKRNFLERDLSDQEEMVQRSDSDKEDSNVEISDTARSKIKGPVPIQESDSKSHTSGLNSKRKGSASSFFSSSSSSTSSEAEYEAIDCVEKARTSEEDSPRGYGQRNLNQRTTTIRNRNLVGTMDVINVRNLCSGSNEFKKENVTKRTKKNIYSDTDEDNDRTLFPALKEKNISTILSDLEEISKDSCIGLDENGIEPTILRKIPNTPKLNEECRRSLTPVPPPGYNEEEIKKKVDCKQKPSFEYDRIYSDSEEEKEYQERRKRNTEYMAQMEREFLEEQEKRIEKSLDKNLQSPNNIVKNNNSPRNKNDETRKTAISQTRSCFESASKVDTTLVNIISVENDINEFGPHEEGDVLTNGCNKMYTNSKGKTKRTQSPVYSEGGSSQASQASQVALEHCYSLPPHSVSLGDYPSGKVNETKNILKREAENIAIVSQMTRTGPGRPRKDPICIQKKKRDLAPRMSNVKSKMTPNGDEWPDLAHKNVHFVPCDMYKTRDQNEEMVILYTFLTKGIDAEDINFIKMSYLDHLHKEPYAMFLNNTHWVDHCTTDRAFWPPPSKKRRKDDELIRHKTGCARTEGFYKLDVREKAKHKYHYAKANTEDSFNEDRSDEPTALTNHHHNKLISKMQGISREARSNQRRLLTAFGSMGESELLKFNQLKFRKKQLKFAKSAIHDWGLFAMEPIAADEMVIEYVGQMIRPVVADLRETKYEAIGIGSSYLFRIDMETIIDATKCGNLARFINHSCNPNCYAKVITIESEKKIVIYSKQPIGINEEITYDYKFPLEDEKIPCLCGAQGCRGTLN

Experiments:
Experiment in all cases: proximity labelling; TurboID: mTurbo-GFP-Piwi, -Aub or -Ago3 expressed in germline stem cell-like cells (bam-GLKD ovaries), flies fed 100 uM biotin; streptavidin pulldown, nanoLC-MS/MS with label-free quantification against the mTurbo-GFP control, biological duplicates
[1] = target: T1, mTurbo-GFP-Aub (Drosophila melanogaster) (UniProt O76922)
T1 sequence: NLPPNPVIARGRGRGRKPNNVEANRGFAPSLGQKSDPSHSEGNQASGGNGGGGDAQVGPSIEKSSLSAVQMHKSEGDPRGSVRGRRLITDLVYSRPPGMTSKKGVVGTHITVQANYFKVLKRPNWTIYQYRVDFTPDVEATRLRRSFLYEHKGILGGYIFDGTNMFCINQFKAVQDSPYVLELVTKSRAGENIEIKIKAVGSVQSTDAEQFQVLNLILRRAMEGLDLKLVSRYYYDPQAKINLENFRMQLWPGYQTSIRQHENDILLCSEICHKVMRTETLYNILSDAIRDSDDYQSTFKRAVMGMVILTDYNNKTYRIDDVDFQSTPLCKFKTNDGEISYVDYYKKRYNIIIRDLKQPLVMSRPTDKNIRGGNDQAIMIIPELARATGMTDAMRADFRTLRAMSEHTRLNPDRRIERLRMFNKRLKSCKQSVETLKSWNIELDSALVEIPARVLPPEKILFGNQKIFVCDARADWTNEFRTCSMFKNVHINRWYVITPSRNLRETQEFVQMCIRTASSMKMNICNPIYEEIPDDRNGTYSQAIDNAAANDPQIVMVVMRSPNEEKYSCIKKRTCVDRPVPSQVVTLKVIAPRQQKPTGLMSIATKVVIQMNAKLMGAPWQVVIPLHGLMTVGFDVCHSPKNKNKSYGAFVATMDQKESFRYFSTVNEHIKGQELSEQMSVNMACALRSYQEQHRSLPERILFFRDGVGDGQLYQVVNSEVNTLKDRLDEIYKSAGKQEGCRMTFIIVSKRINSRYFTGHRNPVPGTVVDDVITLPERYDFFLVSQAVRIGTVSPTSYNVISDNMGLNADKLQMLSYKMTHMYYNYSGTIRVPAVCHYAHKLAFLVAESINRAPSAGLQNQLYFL

[2] = target: T2, mTurbo-GFP-Ago3 (Drosophila melanogaster) (UniProt Q7PLK0)
T2 sequence: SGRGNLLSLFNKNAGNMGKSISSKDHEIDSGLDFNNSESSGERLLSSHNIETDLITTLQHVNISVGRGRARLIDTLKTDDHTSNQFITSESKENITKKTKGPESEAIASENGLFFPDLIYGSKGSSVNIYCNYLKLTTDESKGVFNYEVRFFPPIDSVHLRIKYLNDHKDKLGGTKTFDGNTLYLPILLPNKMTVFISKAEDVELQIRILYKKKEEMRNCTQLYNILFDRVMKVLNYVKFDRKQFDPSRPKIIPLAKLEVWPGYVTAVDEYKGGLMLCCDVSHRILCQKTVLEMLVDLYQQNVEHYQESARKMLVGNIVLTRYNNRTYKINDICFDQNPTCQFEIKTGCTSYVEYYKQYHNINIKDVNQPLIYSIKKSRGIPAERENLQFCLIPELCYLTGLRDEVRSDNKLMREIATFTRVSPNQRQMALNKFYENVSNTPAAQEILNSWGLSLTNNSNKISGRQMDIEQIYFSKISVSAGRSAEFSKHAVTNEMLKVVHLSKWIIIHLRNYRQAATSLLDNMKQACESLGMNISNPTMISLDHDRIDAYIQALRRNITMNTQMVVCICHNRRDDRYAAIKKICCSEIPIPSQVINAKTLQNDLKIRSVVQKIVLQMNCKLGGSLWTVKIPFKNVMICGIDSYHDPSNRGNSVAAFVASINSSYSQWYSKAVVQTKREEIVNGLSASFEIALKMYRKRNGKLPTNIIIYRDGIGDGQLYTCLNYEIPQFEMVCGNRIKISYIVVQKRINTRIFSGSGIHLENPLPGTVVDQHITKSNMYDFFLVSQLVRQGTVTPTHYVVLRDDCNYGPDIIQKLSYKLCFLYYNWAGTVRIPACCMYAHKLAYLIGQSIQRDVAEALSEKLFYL

[3] = target: T3, mTurbo-GFP-Piwi (Drosophila melanogaster) (UniProt Q9VKM1)
T3 sequence: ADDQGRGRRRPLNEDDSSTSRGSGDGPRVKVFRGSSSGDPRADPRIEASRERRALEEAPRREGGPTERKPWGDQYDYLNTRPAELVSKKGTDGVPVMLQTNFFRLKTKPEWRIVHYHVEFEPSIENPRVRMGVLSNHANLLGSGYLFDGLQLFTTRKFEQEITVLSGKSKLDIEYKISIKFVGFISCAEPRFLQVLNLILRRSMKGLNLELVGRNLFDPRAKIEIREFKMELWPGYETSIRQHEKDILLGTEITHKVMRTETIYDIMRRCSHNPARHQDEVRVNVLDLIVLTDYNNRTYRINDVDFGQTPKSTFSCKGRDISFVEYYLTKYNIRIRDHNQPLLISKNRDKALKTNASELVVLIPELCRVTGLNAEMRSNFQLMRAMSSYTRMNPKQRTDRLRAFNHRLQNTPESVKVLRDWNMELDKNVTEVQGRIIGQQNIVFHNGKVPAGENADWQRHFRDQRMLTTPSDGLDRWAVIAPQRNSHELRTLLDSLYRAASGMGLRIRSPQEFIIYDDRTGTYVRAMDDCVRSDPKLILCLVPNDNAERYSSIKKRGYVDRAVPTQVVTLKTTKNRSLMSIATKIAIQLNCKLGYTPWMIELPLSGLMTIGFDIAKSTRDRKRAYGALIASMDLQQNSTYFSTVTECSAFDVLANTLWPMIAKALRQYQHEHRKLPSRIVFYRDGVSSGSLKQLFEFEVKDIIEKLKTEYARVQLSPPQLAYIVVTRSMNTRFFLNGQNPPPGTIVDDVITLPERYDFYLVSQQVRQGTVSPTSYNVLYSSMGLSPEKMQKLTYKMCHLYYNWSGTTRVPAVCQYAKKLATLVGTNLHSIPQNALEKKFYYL

With Bootlegger the binding [1] was “no binding” and the binding [2] was “binds”.

In the case of Set1 (from UniProt Q5LJZ2 1-1641), the binding [3] is reported as “binds”.

B1: Hrb27C (protein, UniProt P48809 1-421)
chain: MEEDERGKLFVGGLSWETTQENLSRYFCRFGDIIDCVVMKNNESGRSRGFGFVTFADPTNVNHVLQNGPHTLDGRTIDPKPCNPRTLQKPKKGGGYKVFLGGLPSNVTETDLRTFFNRYGKVTEVVIMYDQEKKKSRGFGFLSFEEESSVEHVTNERYINLNGKQVEIKKAEPRDGSGGQNSNNSTVGGAYGKLGNECSHWGPHHAPINMMQGQNGQMGGPPLNMPIGAPNMMPGYQGWGTSPQQQQYGYGNSGPGSYQGWGAPPGPQGPPPQWSNYAGPQQTQGYGGYDMYNSTSTGAPSGPSGGGSWNSWNMPPNSAGPTGAPGAGAGTATDMYSRAQAWATGGPSTTGPVGGMPRTGPGNSASKSGSEYDYGGYGSGYDYDYSNYVKQEGASNYGAGPRSAYGNDSSTQPPYATSQAV
With B1 the binding [1] was “binds”.

B2: Zucchini (protein, UniProt Q9VKD7 1-253)
chain: MLITQIIMKQIRDYPIVSTISIAVSTVLASEVIWKLVQCSRSKREKASRVHEVIIFNELGEICAAVHMRNSSMGSQKPQVSPCCNTHCSLRNVAKIVEQIDRAVYSIDLAIYTFTSLFLADSIKRALQRGVIIRIISDGEMVYSKGSQISMLAQLGVPVRVPITTNLMHNKFCIIDGFERVEEIRLLRKLKFMRPCYSIVISGSVNWTALGLGGNWENCIITADDKLTATFQAEFQRMWRAFAKTEGSQIQLK
For B2, the binding [3] was “binds” and the binding [1] was “binds”.

Results are given in words; binding and its absence hold for the method and conditions named. Binding seen in cells or lysates may run through a third protein. A yes stands for co-enrichment or nearness to the bait. Other partners may have been found. For part of these data: A no says only that the protein was not detected with the bait. Where a sequence is shown, tags or fusion partners need not be part of it.
